Assay results as given in publication PMC3068935.
These are yes or no findings as the source states them, for the method shown. In cells and extracts the contact can be indirect. Some entries that bind do so weakly or less than the wild type. Where a sequence is shown, tags or fusion partners need not be part of it.

Molecular target: T1, FLAG-ATF3 (activating transcription factor 3) (UniProt P18847)
T1 sequence: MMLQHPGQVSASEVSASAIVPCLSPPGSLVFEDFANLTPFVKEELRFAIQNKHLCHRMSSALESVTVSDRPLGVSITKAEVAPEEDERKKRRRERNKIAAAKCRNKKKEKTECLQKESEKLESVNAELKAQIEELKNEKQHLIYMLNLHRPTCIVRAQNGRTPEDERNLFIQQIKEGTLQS
Assay: co-IP

## p53 (from UniProt P04637 1-393)
  binding: binds
